Assay results from article PMC6294144.
No constants are given. Whether binding was seen depends on the method and setting. In cells and extracts the contact can be indirect. Some results given as binding are weak or reduced against the parent protein; the word gives no strength.

The chains behind the UniProt entries cited, without tags or fusion partners.
UniProt Q14457: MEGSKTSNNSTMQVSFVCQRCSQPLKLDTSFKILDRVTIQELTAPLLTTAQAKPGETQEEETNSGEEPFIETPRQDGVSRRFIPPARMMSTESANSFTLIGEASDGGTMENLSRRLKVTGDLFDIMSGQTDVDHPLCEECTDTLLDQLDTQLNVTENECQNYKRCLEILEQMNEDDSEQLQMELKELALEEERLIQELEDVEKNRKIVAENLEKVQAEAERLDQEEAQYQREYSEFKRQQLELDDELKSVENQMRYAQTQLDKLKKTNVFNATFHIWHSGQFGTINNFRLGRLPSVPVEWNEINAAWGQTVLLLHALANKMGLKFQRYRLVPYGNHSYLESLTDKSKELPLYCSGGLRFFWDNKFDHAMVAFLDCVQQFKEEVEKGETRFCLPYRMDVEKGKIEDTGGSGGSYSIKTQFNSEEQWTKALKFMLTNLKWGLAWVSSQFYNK
UniProt P10415: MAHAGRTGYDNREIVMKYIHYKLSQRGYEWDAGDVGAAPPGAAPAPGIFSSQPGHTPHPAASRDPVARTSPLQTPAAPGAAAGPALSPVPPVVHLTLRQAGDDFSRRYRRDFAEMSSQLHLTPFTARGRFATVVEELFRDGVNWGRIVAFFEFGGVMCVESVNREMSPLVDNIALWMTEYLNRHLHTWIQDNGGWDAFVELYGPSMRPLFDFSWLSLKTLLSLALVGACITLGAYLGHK

Target: Beclin1 (human (endogenous in HEK293T)) (UniProt Q14457)
Assay: co-IP; 800 ug of whole-cell lysate of HEK293T cells incubated with anti-GIT1 or anti-Beclin1 antibody overnight at 4 °C, protein A/G Sepharose 2 h, three washes with lysis buffer, western blot; cells under basal or starvation (EBSS) conditions, with or without GIT1; IgG as control

Bcl2 (from UniProt P10415 1-239)
binding: binds
